Test results: article PMC12123037, “Cleavage of CAD by caspase-3 determines the cancer cell fate during chemotherapy” (Nature Communications, 2025)
Results are given in words; binding and its absence hold for the method and conditions named. Binding seen in cells or lysates may run through a third protein. Some entries that bind do so weakly or less than the wild type.

Sequences of proteins named here, by UniProt entry; tags and fusion partners are left off. A change or cut given only in a name is not applied to a line headed by its entry.
UniProt P27708: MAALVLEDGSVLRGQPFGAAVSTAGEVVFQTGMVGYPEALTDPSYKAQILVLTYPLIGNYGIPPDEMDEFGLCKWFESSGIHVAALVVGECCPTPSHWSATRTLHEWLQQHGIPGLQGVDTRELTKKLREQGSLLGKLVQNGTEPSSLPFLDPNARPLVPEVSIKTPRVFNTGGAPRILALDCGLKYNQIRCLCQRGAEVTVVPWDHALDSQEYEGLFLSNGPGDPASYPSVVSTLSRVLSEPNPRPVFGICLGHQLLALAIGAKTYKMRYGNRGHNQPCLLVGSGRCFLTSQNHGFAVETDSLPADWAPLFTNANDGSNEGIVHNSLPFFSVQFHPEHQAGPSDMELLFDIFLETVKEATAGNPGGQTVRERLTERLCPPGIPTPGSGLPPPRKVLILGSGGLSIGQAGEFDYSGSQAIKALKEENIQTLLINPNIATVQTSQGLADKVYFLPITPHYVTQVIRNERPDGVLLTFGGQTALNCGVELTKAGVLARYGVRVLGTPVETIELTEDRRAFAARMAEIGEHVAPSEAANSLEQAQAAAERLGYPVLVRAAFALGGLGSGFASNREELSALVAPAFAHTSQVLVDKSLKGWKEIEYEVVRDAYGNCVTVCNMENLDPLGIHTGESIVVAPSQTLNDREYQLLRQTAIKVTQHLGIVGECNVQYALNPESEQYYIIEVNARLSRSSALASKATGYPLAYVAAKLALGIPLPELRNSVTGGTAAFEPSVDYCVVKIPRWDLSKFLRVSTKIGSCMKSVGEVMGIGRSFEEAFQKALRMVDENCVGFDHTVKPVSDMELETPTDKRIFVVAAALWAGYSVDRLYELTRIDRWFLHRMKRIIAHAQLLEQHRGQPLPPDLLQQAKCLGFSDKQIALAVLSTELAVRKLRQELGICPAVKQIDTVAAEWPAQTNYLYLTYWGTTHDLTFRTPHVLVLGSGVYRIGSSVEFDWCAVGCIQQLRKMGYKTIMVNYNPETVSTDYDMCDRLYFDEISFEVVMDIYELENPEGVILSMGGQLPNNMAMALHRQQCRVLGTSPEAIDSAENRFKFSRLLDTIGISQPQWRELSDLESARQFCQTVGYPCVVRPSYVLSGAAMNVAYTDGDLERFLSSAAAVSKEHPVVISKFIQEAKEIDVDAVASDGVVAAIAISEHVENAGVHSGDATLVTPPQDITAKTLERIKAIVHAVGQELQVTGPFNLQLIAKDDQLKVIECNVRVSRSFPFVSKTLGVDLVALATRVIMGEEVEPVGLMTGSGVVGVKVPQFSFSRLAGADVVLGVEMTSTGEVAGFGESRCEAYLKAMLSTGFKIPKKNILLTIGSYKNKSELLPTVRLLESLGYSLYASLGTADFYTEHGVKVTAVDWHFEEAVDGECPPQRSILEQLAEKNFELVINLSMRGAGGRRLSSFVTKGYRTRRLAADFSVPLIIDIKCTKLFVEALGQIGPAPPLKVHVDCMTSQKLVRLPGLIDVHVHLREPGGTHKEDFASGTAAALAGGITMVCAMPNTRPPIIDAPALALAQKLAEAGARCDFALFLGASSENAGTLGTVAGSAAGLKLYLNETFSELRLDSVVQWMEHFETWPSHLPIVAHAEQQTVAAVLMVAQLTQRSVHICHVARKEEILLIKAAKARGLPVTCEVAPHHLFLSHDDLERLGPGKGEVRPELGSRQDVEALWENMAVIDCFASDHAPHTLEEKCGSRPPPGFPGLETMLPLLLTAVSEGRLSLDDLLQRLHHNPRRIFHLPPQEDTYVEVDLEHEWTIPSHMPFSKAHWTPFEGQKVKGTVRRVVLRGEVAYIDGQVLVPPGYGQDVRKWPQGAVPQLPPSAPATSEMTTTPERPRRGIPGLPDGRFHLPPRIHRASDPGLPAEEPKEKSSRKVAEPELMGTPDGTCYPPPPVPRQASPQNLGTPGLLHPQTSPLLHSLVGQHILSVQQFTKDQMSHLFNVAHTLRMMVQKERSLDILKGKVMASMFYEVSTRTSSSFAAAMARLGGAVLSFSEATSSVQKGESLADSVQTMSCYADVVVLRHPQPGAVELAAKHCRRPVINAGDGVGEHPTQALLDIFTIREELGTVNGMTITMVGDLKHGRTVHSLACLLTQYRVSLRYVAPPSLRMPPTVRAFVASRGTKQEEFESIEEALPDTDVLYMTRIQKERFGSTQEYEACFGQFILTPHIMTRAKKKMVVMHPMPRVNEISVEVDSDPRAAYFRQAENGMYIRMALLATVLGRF
UniProt P11172: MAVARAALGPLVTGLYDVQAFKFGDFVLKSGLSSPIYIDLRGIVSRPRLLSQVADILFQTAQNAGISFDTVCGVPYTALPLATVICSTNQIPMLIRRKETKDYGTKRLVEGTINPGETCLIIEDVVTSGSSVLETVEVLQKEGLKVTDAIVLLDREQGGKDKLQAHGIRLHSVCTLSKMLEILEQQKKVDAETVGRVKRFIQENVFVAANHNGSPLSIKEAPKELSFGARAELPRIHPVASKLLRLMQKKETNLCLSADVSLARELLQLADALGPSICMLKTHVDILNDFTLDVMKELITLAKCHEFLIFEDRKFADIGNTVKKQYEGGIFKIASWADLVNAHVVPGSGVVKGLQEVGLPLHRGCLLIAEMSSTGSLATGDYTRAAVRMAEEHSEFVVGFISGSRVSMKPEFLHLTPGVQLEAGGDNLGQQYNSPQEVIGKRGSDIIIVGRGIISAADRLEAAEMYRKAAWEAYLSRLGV
UniProt P17174: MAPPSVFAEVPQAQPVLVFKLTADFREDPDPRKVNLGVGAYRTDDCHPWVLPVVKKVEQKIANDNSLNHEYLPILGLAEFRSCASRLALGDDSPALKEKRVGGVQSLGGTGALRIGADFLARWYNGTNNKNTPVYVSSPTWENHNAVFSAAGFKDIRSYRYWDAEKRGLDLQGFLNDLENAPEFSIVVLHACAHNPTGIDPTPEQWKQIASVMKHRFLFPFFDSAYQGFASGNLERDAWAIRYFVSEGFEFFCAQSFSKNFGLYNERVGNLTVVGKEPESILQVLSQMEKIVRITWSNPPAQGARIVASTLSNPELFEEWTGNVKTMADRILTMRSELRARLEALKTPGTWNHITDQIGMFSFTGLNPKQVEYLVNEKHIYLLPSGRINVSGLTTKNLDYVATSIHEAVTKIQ

Columns and labels:
[1] = biological target: Flag-tagged wildtype CAD (Carbamoyl-phosphate synthetase II, Aspartate transcarbamylase, and Dihydroorotase) (human) (UniProt P27708); experiment: co-IP; Flag-tagged CAD precipitated from lysates of transfected cells with anti-FLAG M2 magnetic beads, 4 °C overnight; 20 mM Tris-HCl pH 7.4, 150 mM NaCl, 1 mM EDTA, 1% Triton X-100; immunoblot (general IP methods; legend of Supplementary Fig. 4b not shown)
[2] = biological target: Flag-tagged CAD-D1371A (human) (UniProt P27708); experiment: as above

binding [1]	binding [2]	Substance
binds	binds	uridine 5'-monophosphate synthase (UMPS) (from UniProt P11172 1-480) (enzyme)
binds	binds	glutamate oxaloacetate transaminase 1 (GOT1) (from UniProt P17174 1-413) (enzyme)
